Source: publication PMC10459988

Experiments:
[1] = test system: GST-GmERF105 (Glycine max (soybean) cv. Williams 82); assay: competition with a labelled probe; details: EMSA Kit (Beyotime), pH and temperature not stated, recombinant protein, protein details: N-terminal GST (pGEX-6P-1, printed PGX-6P-1)
[2] = test system: GST-GmERF105 (Glycine max (soybean) cv. Williams 82); assay: EMSA; details: EMSA Kit (Beyotime); pH and temperature not stated; recombinant protein; protein details: N-terminal GST (pGEX-6P-1, printed PGX-6P-1)

CGCCGCCAATTGCCGCCAATAGCCGCCA / GGCGGCTATTGGCGGCAATTGGCGGCG [GCC-box cold competitor]
binding result ([1]; 1000x unlabeled competitor against labeled GCC-box (EMSA)): binds

CGCCGCCAATTGCCGCCAATAGCCGCCA / GGCGGCTATTGGCGGCAATTGGCGGCG [GCC-box probe]
binding result [2]: binds

CTCCTCCAATTTCCTCCAATATCCTCC (double strand) [mGCC-box competitor]
binding result ([1]; unlabeled mutant competitor against labeled GCC-box (EMSA)): no binding

For at least one entry, the source does not settle the construct or the ends of the probe. For part of these data: A negative result means that nothing was seen under these conditions.
